# Experimental data from US6635631B2, “Iron compounds, compositions, methods of making the same and uses thereof” (Vitra Pharmaceuticals, Ltd., priority 1995, dated 2003).
# Assay: Effect on iron absorption in vivo of maltol as a diet supplement (liver iron)
# Parameters: species or system Male Wistar rats
# Conditions: rats fed maltol 50 mg/kg by gavage on alternate days, individual animals 1-6
# Protocol: Male Wistar rats, housed in polyethylene cages, initially weighing 70-80 grams were given a normal powder diet and water ad libitum for two weeks prior to treatment with maltol by gavage. Provided the animal was showing normal growth, treatment by gavage with maltol at 50 mg/kg was commenced and continued on alternate days for a further two weeks. At the end of the experimental period the animals were sacrificed, the livers were excised, mass determined and the sub cellular fraction assayed for iron be electrothermal atomic absorption. […]. The iron content of the diet is 240 mg/kg of food and the daily consumption of the rats is approximately 20 g which contains 4.8 mg as iron. The content of maltol in the diet is approximately 10 mg which is a ratio of iron/maltol of 4.8/10.0 which is approximately a 1:1 molar ratio (actual 1:1 is 4.5/10/0).
# The liver content and concentration of iron in the sub cellular fraction were compared with the control group fed the same diet over the month, but without maltol.
smiles,measurement,value
"Cc1occc(=O)c1O [Maltol, 3-hydroxy-2-methyl-4-pyrone]",Body wt,200 g (5×) and 220 g
same,Liver wt,12.1 g and 10.1 g (2×) and 9.9 g and 11.3 g (2×)

# Values joined by “and” are separate entries in the source; they are usually repeats but may differ in a detail not shown here. Identical values can stand only once.
